# Data: the supplement of paper PMC3334620
# Over roughly 33,000 sequences, “E-score (-0.5 to 0.5)” has its median near -0.016; the highest 2% begin near 0.3. The list shows a part of the results.
# Target: T1, Yer184c (UniProt P39961)
# T1 sequence: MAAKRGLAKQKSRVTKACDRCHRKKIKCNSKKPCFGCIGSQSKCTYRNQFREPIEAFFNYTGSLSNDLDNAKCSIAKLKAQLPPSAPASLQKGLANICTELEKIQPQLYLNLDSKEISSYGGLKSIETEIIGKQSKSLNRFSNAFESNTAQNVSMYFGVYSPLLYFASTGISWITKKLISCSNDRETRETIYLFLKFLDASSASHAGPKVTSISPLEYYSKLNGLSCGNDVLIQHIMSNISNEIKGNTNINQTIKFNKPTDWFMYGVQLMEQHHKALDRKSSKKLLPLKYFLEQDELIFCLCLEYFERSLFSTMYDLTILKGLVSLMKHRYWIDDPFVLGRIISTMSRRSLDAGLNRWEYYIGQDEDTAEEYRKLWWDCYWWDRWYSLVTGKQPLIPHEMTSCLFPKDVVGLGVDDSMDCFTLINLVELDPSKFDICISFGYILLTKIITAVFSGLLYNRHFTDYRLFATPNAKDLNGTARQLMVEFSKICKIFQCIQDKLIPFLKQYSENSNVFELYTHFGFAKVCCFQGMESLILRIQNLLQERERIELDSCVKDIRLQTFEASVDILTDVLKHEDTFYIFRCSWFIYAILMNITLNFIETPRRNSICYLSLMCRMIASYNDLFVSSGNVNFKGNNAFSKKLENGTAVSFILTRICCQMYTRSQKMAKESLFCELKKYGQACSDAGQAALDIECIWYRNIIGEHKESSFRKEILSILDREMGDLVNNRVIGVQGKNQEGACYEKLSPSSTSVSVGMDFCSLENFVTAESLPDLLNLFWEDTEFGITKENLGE
# Experiment: PBM E-score (8-mer binding enrichment) (E-score (-0.5 to 0.5)); higher = stronger / more preferred TF binding
# Settings: protein concentration: 100 nM; construct: GST-full length
# Procedure, shortened: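 Universal all-10-mer Agilent arrays, fresh or stripped once, were converted to double-stranded form by primer extension. GST-tagged yeast transcription factors from PURExpress in vitro transcription/translation, full-length or DNA-binding domain only, were applied at about 100-200 nM and detected with fluorescent anti-GST. After masliner normalisation, the Universal PBM Analysis Suite scored each ungapped eight-base word together with its reverse complement by E-score.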
row,Sequence,PBM E-score
1,ATACTCAT,0.0111
2,ACCTCTCC,-0.142
3,CTTAATAC,0.00233
4,AAAGATCG,-0.00326
5,CGTCTCAG,0.0391
6,AACTCGAG,0.0336
7,GAAGGGAA,-0.203
8,GAATTTGA,0.14
9,TAAGACTA,-0.0449
10,GAGAATCC,0.0247
11,CAGGGTCC,-0.0878
12,CAGATTAC,0.0782
13,ACGATGTA,-0.00499
14,CGATGATA,0.152
15,CGAGCGTA,0.0419
16,CATAGCTC,-0.0893
17,ACAGTGGA,-0.0563
18,AACAGTGA,-0.0862
19,GTACAGTA,-0.0271
20,AGTCACAG,-0.106
21,CCCCCGCA,-0.203
22,CAGAAAGG,-0.123
23,TTACGCAA,0.0884
24,AACGCATA,0.0315
25,CTGTGTTC,0.093

row,Sequence,PBM E-score
1,TCCGAAGA,0.376
2,CAATACCC,-0.181
3,ACCGACGG,0.158
4,CGCAATAG,-0.0415
5,CGATGGCA,0.0144
6,CAGGGAAG,-0.216
7,CGGAGAAC,0.14
8,TACGCTCA,-0.0428
9,GTGATAAA,0.179
10,GCGTCCAA,-0.025
11,TGGCGAAA,0.0101
12,TAGCACAA,-0.00731
13,CTTCAATA,0.135
14,AGCTAATC,0.0408
15,TAGCCAGA,0.0229
16,GTCCACGA,-0.129
17,GGAGCTAC,-0.113
18,AGAGTCTG,-0.22
19,ACGCTCGC,-0.00392
20,TGTTACAA,0.231
21,GAGATCTA,-0.184
22,CATATGAA,0.0245
23,GTACTCGA,-0.113
24,AATTGTAA,0.0139
25,ACAGGGAA,-0.0722

row,Sequence,PBM E-score
1,AGCCCAGC,-0.151
2,AGAGTGCA,-0.111
3,GAGTGTCA,0.0744
4,TAGACGAA,0.0936
5,AAGAACCC,-0.0463
6,ACCATAAA,0.148
7,CCCAATAC,-0.179
8,GGAGTGTA,-0.236
9,ATTTACCC,-0.0431
10,GCCCACCA,-0.33
11,AACTTGTA,-0.0251
12,CCCAAGCG,-0.156
13,ATTAACAC,0.253
14,CTTTGGTA,-0.103
15,AGGAACGG,0.124
16,CTTAAAGA,0.0801
17,CATAACAG,0.00022
18,CGTCTCAC,-0.132
19,AATGCAAG,0.0204
20,CAATCCGC,0.095
21,CGAGAGAC,-0.152
22,AACATCAA,0.156
23,GCGAGTGA,0.0703
24,ACTAAGAT,0.154
25,TGGTAAAA,0.203

row,Sequence,PBM E-score
1,CGTAGGTC,-0.29
2,ATAGAGGG,-0.135
3,ACTTCTCC,0.0148
4,ATACCTAT,-0.054
5,TATTGCGA,0.034
6,CTGGTATA,-0.25
7,GGCTTATA,-0.00393
8,TCCCGCCA,-0.0332
9,ACCGAGTA,0.126
10,ATTGGGCG,-0.119
11,AATCACGC,0.125
12,CTATTTAC,0.154
13,ATATATTG,0.0957
14,GAGCTGAA,-0.0973
15,GACCCTTA,-0.0736
16,AAGATTAA,0.224
17,GAAACCTA,-0.147
18,CATTCCTC,-0.0195
19,AAGCTACA,0.0204
20,ATGCTTAA,0.126
21,CATCACGC,0.0116
22,GCGTTCAC,0.0628
23,ATGTTGCC,-0.0147
24,CAAGCCTG,-0.271
25,ACTACAGT,-0.065

row,Sequence,PBM E-score
1,TCATGTAA,0.027
2,AAATGCGT,-0.0131
3,AGCGGCCC,-0.243
4,GAGTCTGA,-0.186
5,CATAGACA,0.0515
6,ATTTGTAC,0.0416
7,ATTATTAG,0.121
8,GGTCTCAA,-0.0247
9,AGCATGCT,-0.0847
10,CGACACAG,0.021
11,CCCAACAA,-0.0495
12,CTAGATCC,-0.127
13,CCTAAACC,-0.174
14,GCCTGTGA,-0.282
15,ACGGTGAA,0.159
16,GTCGTCAC,-0.0911
17,AGCACTTA,-0.131
18,ATTAGGTC,0.149
19,ACCGCCGG,0.291
20,GAATTAAA,0.152
21,GTTGTTCA,-0.0348
22,TAGTACTA,0.0671
23,CTACGTTA,0.0318
24,TTCTCAAA,0.12
25,CCAGTTTC,-0.0973

# As entered above:
# GGTCTCAA | PBM E-score: -0.0247
# GTTGTTCA | PBM E-score: -0.0348
# ATTTGTAC | PBM E-score: 0.0416
# CCAGTTTC | PBM E-score: -0.0973
# AGCGGCCC | PBM E-score: -0.243
# GAATTAAA | PBM E-score: 0.152
# AGCATGCT | PBM E-score: -0.0847

# Remaining list, next part.

row,Sequence,PBM E-score
1,CACCCAGG,-0.21
2,AAGCTAAG,-0.18
3,CCACGGAG,0.0656
4,TCCAAGAA,0.0388
5,ATTTTGGG,-0.00148
6,CAAACTTA,0.0384
7,CACATACA,-0.08
8,AACTACCA,-0.0838
9,GGTCGTCA,-0.044
10,AAGCTTAA,0.102
11,GCTCTGCA,-0.0884
12,CACCACGG,-0.137
13,CTAAACCC,-0.0279
14,GACTATCC,-0.215
15,ATTAGTAG,0.164
16,CAGAGACA,-0.258
17,GCCACGGA,0.148
18,AACAACTT,0.0481
19,CTCCCATC,-0.109
20,ACACCTCT,-0.335
21,ACAACTTC,0.147
22,CGGCCTCA,0.189
23,GAATTAGA,0.124
24,ACACTTTG,0.0368
25,GCTGCAAA,0.198

row,Sequence,PBM E-score
1,AGCTCGTC,-0.0589
2,TTATGAAA,0.175
3,ATTAGACC,-0.112
4,CCGCAAAA,0.257
5,CAACGACC,0.065
6,GTGGGAAA,0.0324
7,CGGGCCCA,0.0473
8,AGGACCCC,-0.202
9,CCGATTCA,0.0391
10,CCGGGTAC,0.117
11,CTCACCCA,-0.0925
12,TGCTACCA,-0.129
13,CTACACTC,-0.133
14,ACCTCTTG,-0.158
15,TAGCACGA,0.0455
16,AACCCGAA,0.14
17,AATCGAAG,0.198
18,CACTCCGG,0.306
19,CAATCCTG,0.0876
20,ATGGCTGA,-0.192
21,CGCCGGAC,0.28
22,CCGATGCC,0.193

# Looked up one by one from above (two):
row,Sequence,PBM E-score
25,CCAGTTTC,-0.0973
13,ATATATTG,0.0957
